According to ChEMBL document CHEMBL3351372, “Structure-Based Drug Design of Novel Potent and Selective Tetrahydropyrazolo[1,5-a]pyrazines as ATR Inhibitors” (ACS Med Chem Lett, 2015):
Converted amounts (≈) assume the structure as drawn.

Amino acid sequences for entries named in this document (tags omitted). A change or cut given only in a name is not applied to a line headed by its entry.
UniProt Q12809: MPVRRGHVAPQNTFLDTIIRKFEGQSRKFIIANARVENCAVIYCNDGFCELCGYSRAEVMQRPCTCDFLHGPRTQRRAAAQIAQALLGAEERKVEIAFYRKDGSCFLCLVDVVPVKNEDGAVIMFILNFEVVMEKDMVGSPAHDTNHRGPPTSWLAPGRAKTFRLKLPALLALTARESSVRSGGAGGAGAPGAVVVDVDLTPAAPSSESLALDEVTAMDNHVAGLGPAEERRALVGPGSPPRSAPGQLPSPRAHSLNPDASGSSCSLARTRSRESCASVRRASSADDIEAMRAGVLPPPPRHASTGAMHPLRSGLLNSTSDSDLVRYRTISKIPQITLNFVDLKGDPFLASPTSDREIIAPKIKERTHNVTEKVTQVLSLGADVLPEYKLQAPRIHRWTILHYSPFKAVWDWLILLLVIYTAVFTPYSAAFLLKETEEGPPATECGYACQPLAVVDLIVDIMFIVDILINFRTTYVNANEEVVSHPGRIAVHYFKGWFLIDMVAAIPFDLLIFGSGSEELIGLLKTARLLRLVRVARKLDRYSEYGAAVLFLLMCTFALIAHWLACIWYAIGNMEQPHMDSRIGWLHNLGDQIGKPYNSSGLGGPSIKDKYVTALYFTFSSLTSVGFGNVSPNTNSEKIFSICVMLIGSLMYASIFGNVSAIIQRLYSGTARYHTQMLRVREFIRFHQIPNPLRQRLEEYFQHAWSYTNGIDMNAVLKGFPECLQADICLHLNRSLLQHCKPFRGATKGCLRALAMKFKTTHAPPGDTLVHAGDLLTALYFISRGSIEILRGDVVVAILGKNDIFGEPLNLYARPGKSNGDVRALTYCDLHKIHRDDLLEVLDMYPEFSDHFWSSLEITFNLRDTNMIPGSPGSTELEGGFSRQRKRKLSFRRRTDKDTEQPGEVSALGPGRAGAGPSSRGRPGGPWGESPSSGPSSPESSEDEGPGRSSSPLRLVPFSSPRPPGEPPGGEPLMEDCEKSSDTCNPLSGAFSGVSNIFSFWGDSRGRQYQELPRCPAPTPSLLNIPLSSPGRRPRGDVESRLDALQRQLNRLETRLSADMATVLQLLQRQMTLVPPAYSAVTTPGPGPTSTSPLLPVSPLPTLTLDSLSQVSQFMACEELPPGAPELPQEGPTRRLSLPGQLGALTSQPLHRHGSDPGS

Experiments:
[1] = Octanol-water distribution coefficient, log D of the compound with pH 7.4 PBS buffer
[2] = Solubility of the compound in PBS buffer at pH 7 by miniaturized shake flask equilibrium solubility assay
[3] = biological target: Voltage-gated inwardly rectifying potassium channel KCNH2 (Homo sapiens, UniProt Q12809); assay: Inhibition of human ERG by automated whole cell electrophysiology

Q: With `C[C@@H]1Cn2ncc(-c3ccc(S(C)(=O)=O)cc3)c2CN1c1ccnc2[nH]ccc12` as the compound, how does the logD [1] read?
A: 2.3

Q: And the solubility thermodynamic [2]?
A: 122 µM (≈ 49.7 µg/mL)

Q: And the IC50 [3]?
A: 1500 nM
